Measurements from publication PMC12530543.
These are yes or no findings as the source states them, for the method shown. Binding seen in cells or lysates may run through a third protein.

Protein sequences, listed by entry. Tags and fused reporters are not part of them. Lines headed by an entry give the natural chain unless they say otherwise; changes in a name come on top.
UniProt Q86VE9: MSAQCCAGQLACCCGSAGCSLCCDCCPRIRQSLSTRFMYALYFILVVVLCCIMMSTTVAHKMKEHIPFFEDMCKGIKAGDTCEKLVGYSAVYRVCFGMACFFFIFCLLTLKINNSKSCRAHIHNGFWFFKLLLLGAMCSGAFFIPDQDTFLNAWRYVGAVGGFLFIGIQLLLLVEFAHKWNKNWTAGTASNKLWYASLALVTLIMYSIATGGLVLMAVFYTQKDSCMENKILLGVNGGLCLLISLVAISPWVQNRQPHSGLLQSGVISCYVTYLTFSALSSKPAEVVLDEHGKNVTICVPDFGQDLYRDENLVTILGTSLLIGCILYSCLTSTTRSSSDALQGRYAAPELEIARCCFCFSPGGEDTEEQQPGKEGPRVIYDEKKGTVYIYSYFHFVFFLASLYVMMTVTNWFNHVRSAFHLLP
UniProt P03407: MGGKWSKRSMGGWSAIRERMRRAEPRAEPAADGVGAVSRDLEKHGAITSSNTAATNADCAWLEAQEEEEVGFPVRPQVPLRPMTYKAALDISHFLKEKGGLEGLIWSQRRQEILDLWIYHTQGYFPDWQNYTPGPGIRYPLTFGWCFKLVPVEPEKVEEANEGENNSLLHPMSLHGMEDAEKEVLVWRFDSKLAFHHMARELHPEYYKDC

Target: Ser5 K130R with a FLAG-tag (human) (UniProt Q86VE9)
Assay: co-IP; FLAG-tagged Ser5 K130R with Nef-HA or glycoMA-HA, or FLAG-tagged mSer5 / K131R with glycoGag-HA, co-expressed in HEK293T cells; pulled down by anti-FLAG, WB

HIV-1 SF2 Nef with an HA-tag (from UniProt P03407 1-210)
binding: no binding
